Values from PubChem BioAssay AID652259 (Drosophila RNAi Screening Center, 2013).

Test: 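Genome-wide hunt for genes that control Wingless pathway activity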 (primary screen)
System: Drosophila clone 8 imaginal disc epithelial cells
Knock-down reagent: long dsRNA against Drosophila genes
Conditions: pathway stimulated by co-transfected Wingless expression plasmid
Measurement: 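Firefly luciferase from a tcf-site Wingless reporter, measured alongside co-transfected Renilla luciferase that tracks transfection; pathway stimulated by a Wingless plasmid; the firefly-to-Renilla ratio is not deposited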
Direction: firefly reporter light: higher = more Wg reporter light, before normalisation; Renilla control light: higher = more transfected or surviving cells
Call rule: 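Strong candidates differ from their plate mean by at least two out of four per-plate statistical tests; weak candidates meet just one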
Calls: active = candidate regulator (raises or lowers reporter); inactive = not a candidate
The screen tested about 22,000 reagents; below is an unselected part of those that have a named target and a result. In the full data, 233 (1.1%) are marked active. 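Light values are raw, unnormalised plate reads; the ratio scores behind the reporter calls were not deposited.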 Reagents against one gene are numbered here. Not stated in the record: the amount of reagent, the time to read-out, the dose of the treatment.

| gene | reagent | firefly reporter light, replicate 1 | firefly reporter light, replicate 2 | Renilla control light, replicate 1 | Renilla control light, replicate 2 | Call |
| --- | --- | --- | --- | --- | --- | --- |
| l(3)mbn (GeneID 38701) | 1 | 3131 | – | 1816 | – | inactive |
| emp (GeneID 37999) | 1 | 16387 | – | 7312 | – | inactive |
| emp (GeneID 37999) | 2 | 12233 | – | 4276 | – | inactive |
| CG30275 (GeneID 246522) | 1 | 2775 | 7351 | 901 | 3045 | inactive |
| Vps26 (GeneID 31144) | 1 | 2384 | 6944 | 1232 | 2166 | inactive |
| homer (GeneID 33944) | 1 | 6693 | – | 2581 | – | inactive |
| CG3663 (GeneID 37944) | 1 | 14281 | – | 4082 | – | inactive |
| CG10164 (GeneID 42777) | 1 | 3931 | – | 772 | – | inactive |
| CG34377 (GeneID 42608) | 1 | 3193 | – | 1585 | – | inactive |
| CG34377 (GeneID 42608) | 2 | 36843 | – | 5928 | – | inactive |
| CG34377 (GeneID 42608) | 3 | 33405 | – | 5734 | – | inactive |
| CG34377 (GeneID 42608) | 4 | 33781 | – | 4616 | – | inactive |
| CG34377 (GeneID 42608) | 5 | 32517 | – | 4762 | – | inactive |
| Or63a (GeneID 38354) | 1 | 6633 | – | 3252 | – | inactive |
| Sgsh (GeneID 42266) | 1 | 7572 | – | 1367 | – | inactive |
| CG31459 (GeneID 318746) | 1 | 3597 | – | 1632 | – | inactive |
| Glyp (GeneID 33386) | 1 | 3568 | – | 664 | – | inactive |
| YME1L (GeneID 37636) | 1 | 8137 | – | 2484 | – | inactive |
| Np (GeneID 35904) | 1 | 4040 | 5603 | 1269 | 2732 | inactive |
| Np (GeneID 35904) | 2 | 5296 | 16985 | 1528 | 4792 | inactive |
| Np (GeneID 35904) | 3 | 8.02e5 | 7.99e5 | 2.19e5 | 1.86e5 | inactive |
| Pld3 (GeneID 35384) | 1 | 5994 | – | 2168 | – | inactive |
| CG9988 (GeneID 43388) | 1 | 7488 | – | 1872 | – | inactive |
| swm (GeneID 35235) | 1 | 17749 | – | 6072 | – | inactive |
| swm (GeneID 35235) | 2 | 3.96e5 | 4.08e5 | 1.26e5 | 1.33e5 | inactive |
| Muc91C (GeneID 42246) | 1 | 17668 | – | 3704 | – | inactive |
| Muc91C (GeneID 42246) | 2 | 8.93e5 | 9.36e5 | 5.80e5 | 4.20e5 | inactive |
| twr (GeneID 40815) | 1 | 13002 | – | 3104 | – | inactive |
| CG2611 (GeneID 35324) | 1 | 12481 | – | 4220 | – | inactive |

3 entries from above, arranged by “Renilla control light, replicate 1”, high to low:
| gene | reagent | firefly reporter light, replicate 1 | firefly reporter light, replicate 2 | Renilla control light, replicate 1 | Renilla control light, replicate 2 | Call |
| --- | --- | --- | --- | --- | --- | --- |
| CG3663 (GeneID 37944) | 1 | 14281 | – | 4082 | – | inactive |
| homer (GeneID 33944) | 1 | 6693 | – | 2581 | – | inactive |
| Vps26 (GeneID 31144) | 1 | 2384 | 6944 | 1232 | 2166 | inactive |
